# Values from PubChem BioAssay AID1508597 (Cure First, 2020)
# Aim: 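Genes whose silencing sensitises or protects ovarian cancer cells against rucaparib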 (primary screen)
# Cells: human ovarian carcinoma lines grown from tumours: OCI-P5x (papillary serous) and OCI-C5x (clear cell)
# Knock-down reagent: siRNA pool against human genes, 1.25 pmol siRNA per well
# Timing: 72 h or 96 h, depending on the cell culture
# Treatment: rucaparib 20 µM (about IC30) or vehicle, present until read-out
# Rucaparib or vehicle: Rucaparib
# Cell line: OCI-P5x (serous)
# Read-out: 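ATP luminescence measured at 72 or 96 h according to the culture, then normalised and expressed as percent viability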
# Reading the numbers: viability, normalised: higher = more viable cells remaining
# Active means: 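a well counts as a hit if its normalised viability is under 80 percent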
# Calls: active = viability under 80%; inactive = viability 80% or more
# This is a random part of the about 2,100 reagents, under one of the conditions tested. 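Calls flag viability under 80% in either arm, not effects specific to rucaparib; the reference for percent is not stated.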 Entries without a mark were called inactive. No sequences are given here. Not given: the 100% reference.
Gene,PubChem SID,technical replicate,"viability, normalised (%)"
SETD4,SID405527283,1,59 (active)
SETD4,SID405527283,2,71.4 (active)
SETD4,SID405527283,3,63.5 (active)
TDRKH,SID405526549,1,73.8 (active)
TDRKH,SID405526549,2,74.9 (active)
TDRKH,SID405526549,3,72.7 (active)
DAPK2,SID405527904,1,80.2
DAPK2,SID405527904,2,70.8 (active)
DAPK2,SID405527904,3,63.2 (active)
OXSR1,SID405527862,1,81.2
OXSR1,SID405527862,2,82.1
OXSR1,SID405527862,3,79.3 (active)
PIM1,SID405527587,1,115
PIM1,SID405527587,2,130
PIM1,SID405527587,3,113

No new results follow: an excerpt of the list.
Gene,PubChem SID,technical replicate,"viability, normalised (%)"
OXSR1,SID405527862,2,82.1
OXSR1,SID405527862,3,79.3 (active)
PIM1,SID405527587,1,115
PIM1,SID405527587,2,130

The list goes on.
Gene,PubChem SID,technical replicate,"viability, normalised (%)"
MMS22L,SID405528494,1,110
MMS22L,SID405528494,2,120
MMS22L,SID405528494,3,84.6
PRDM7,SID405527191,1,59.8 (active)
PRDM7,SID405527191,2,54.8 (active)
PRDM7,SID405527191,3,55 (active)
PLCB3,SID405526707,1,77.6 (active)
PLCB3,SID405526707,2,64.6 (active)
PLCB3,SID405526707,3,61.5 (active)
